A short description of data set [1]: general procedure: Fmoc solid-phase peptide synthesis; Fmoc-Lys(Boc)-Wang Resin; HBTU / N-Methylmorpholine. The note with it: late stage modification step, TFA salt exchanged to AcOH salt by ion exchange resin.
Data set [2] can be described thus: general procedure: Fmoc solid-phase peptide synthesis; Wang resin; HBTU / N-Methylmorpholine. The settings on record: whole synthesis, scale 1 mmole, TFA salt.

Step yield, crude mass and crude yield data for two substances are collected here from patent publication US11613558B2 (Yuyu Pharma, Inc., priority 2018, dated 2023).

On to “Fmoc-Hyp-Gly-Gln-Leu-Gly-Ala-Leu-Gly-Pro-Lys(Dde)-PEG1-NHBoc”, for which, in data set [1], the step yield turned out to be 71%.

Consider “H-Hyp-Gly-Gln-Leu-Gly-Leu-Ala-Gly-Pro-Lys-OH TFA Salt”, for which, in data set [2], the crude mass came to 1 g and the crude yield came out at 105%.
